This note sets out measurements from publication PMC10720265.

Sequences of proteins named here, by UniProt entry; tags and fusion partners are left off.
UniProt Q6NZY4: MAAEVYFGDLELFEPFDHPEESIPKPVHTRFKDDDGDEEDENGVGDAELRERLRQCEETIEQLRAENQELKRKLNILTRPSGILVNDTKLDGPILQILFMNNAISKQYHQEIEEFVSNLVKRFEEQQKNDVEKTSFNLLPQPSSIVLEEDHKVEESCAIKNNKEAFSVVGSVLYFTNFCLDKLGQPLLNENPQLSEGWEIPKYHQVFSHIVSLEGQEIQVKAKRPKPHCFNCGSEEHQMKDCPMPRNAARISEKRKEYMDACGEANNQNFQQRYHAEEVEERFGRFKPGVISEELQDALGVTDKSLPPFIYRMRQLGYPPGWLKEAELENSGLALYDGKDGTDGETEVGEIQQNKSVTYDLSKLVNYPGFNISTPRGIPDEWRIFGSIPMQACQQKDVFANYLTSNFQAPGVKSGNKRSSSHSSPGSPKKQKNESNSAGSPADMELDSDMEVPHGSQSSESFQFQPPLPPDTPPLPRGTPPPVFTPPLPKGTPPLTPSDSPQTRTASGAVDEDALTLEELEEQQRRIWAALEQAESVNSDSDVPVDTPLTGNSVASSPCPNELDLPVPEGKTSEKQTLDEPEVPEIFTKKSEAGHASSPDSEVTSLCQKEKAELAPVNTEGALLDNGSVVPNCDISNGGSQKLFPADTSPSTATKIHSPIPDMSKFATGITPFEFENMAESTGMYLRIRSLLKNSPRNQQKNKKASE

For test [1], the target named is MYC-tagged ZC3H18^MUT, point mutations in the acidic SLiM (human) (UniProt Q86VM9). Nature of the test: co-IP; MYC IP of MYC-tagged ZC3H18^WT or ZC3H18^MUT from HeLa lysates, untagged cells as control; western blot for ARS2, NCBP2, ZCCHC8, MTR4. A general note: Immunoblotting shows a protein as a band on a membrane.
Test [2] addresses T1, His-MBP-Z1^11-35(WT) (human) (UniProt O60293).
T1 sequence: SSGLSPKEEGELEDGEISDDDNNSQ
Nature of the test: pull-down; SLiM peptide fusion held on amylose resin; 10 or 30 μM of each protein; 20 mM HEPES/NaOH pH 7.5, 100 mM NaCl, 2 mM DTT, 0.01% Tween 20; 30 min on ice, resin 1 h at 4°C; Coomassie-stained SDS-PAGE; both purified.

For test [3], the target named is T2, ZC3H18^190-211(WT) (human) (UniProt Q86VM9).
T2 sequence: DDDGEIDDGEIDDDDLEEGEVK
Described as above.

A further test has as its target MYC-ARS2 (human). Description: co-IP; MYC IP of stably expressed MYC-ARS2 from HeLa lysates; cells treated with siLUC or siZC3H18, or with DOX-induced overexpression of Z1^1-209(WT); western blot.

These are yes or no findings as the source states them, for the method shown. A result given as binding can be weak or reduced; the word gives no strength. For some assays here: Where a sequence is shown, tags or fusion partners need not be part of it. For some assays here: In cells and extracts the contact can be indirect.

Regarding “ZCCHC8, endogenous in HeLa cells (from UniProt Q6NZY4 1-707)”, the binding result in test [1] is given as “binds”. Consider “His-ARS2^147-871 (human) (domain or fragment)”, for which the binding entry in test [2] and in test [3] was “binds” throughout.

B1: Z1^1-209(WT), MYC-tagged N-terminal fragment of human ZFC3H1 (domain or fragment, UniProt O60293 1-209)
chain: MATADTPAPASSGLSPKEEGELEDGEISDDDNNSQIRSRSSSSSSGGGLLPYPRRRPPHSARGGGSGGGGGSSSSSSSSQQQLRNFSRSRHASERGHLRGPSSYRPKEPFRSHPPSVRMPSSSLSESSPRPSFWERSHLALDRFRFRGRPYRGGSRWSRGRGVGERGGKPGCRPPLGGGAGSGFSSSQSWREPSPPRKSSKSFGRSPSR
As to B1, in the test with MYC-ARS2 (human), the binding entry is reported as “binds”.

B2: ZC3H18, endogenous in HeLa cells (protein, UniProt Q86VM9 1-953)
chain: MDVAESPERDPHSPEDEEQPQGLSDDDILRDSGSDQDLDGAGVRASDLEDEESAARGPSQEEEDNHSDEEDRASEPKSQDQDSEVNELSRGPTSSPCEEEGDEGEEDRTSDLRDEASSVTRELDEHELDYDEEVPEEPAPAVQEDEAEKAGAEDDEEKGEGTPREEGKAGVQSVGEKESLEAAKEKKKEDDDGEIDDGEIDDDDLEEGEVKDPSDRKVRPRPTCRFFMKGNCTWGMNCRFIHPGVNDKGNYSLITKADPFPPNGAPPLGPHPLMPANPWGGPVVDEILPPPPPEPPTESAWERGLRHAKEVLKKATIRKEQEPDFEEKRFTVTIGEDEREFDKENEVFRDWNSRIPRDVRDTVLEPYADPYYDYEIERFWRGGQYENFRVQYTETEPYHNYRERERERERENRQRERERERERDRERERRQRERERERERERDKERQRRKEEWERERAKRDEKDRQHRDRDREKEREKEKGKPKPRSPQPPSRQAEPPKKEAATTGPQVKRADEWKDPWRRSKSPKKKLGVSVSPSRARRRRKTSASSASASNSSRSSSRSSSYSGSGSSRSRSRSSSYSSYSSRSSRHSSFSGSRSRSRSFSSSPSPSPTPSPHRPSIRTKGEPAPPPGKAGEKSVKKPAPPPAPPQATKTTAPVPEPTKPGDPREARRKERPARTPPRRRTLSGSGSGSGSSYSGSSSRSRSLSVSSVSSVSSATSSSSSAHSVDSEDMYADLASPVSSASSRSPAPAQTRKEKGKSKKEDGVKEEKRKRDSSTQPPKSAKPPAGGKSSQQPSTPQQAPPGQPQQGTFVAHKEIKLTLLNKAADKGSRKRYEPSDKDRQSPPPAKRPNTSPDRGSRDRKSGGRLGSPKPERQRGQNSKAPAAPADRKRQLSPQSKSSSKVTSVPGKASDPGAASTKSGKASTLSRREELLKQLKAVEDAIARKRAKIPGKA
As for B2, in the test with MYC-ARS2 (human), the binding result is reported as “binds”.
